{"source": "PubChem BioAssay AID1259424 (University of Nebraska Medical Center, 2018)", "screen": "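Rank knockdowns across the genome by resemblance to the KSR1 depletion profile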 (primary screen)", "cell system": "human HCT116 colon cancer cells", "knock-down reagent": "siRNA pool against human genes, 50 nM", "read-out": "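Log2 levels of six mRNAs (branched-DNA multiplex), adjusted by two reference genes and the non-targeting median, then scored against the average KSR1 knockdown pattern as Pearson r and euclidean distance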", "scale": "mean correlation with KSR1 profile: higher = expression change more like KSR1 knockdown", "note": "Here is one part, drawn at random, of about 14,000 deposited reagents. 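Higher correlation or smaller distance means closer resemblance to KSR1 loss; control wells, including KSR1 knockdowns, recur on many plates.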 Not all columns of the deposit are shown. Not given: the time to read-out."}
{"Gene": "C3orf18 (chromosome 3 open reading frame 18)", "mean correlation with KSR1 profile": -0.405}
{"Gene": "TRIM51 (tripartite motif-containing 51)", "mean correlation with KSR1 profile": 0.656}
{"Gene": "MTFR1 (mitochondrial fission regulator 1)", "mean correlation with KSR1 profile": 0.371}
{"Gene": "MT-CO1 (mitochondrially encoded cytochrome c oxidase I)", "mean correlation with KSR1 profile": 0.222}
{"Gene": "NDUFAB1 (NADH:ubiquinone oxidoreductase subunit AB1)", "mean correlation with KSR1 profile": -0.0483}
{"Gene": "TM7SF2 (transmembrane 7 superfamily member 2)", "mean correlation with KSR1 profile": 0.0314}
{"Gene": "PCNX1 (pecanex 1)", "mean correlation with KSR1 profile": -0.187}
{"Gene": "LRP11 (LDL receptor related protein 11)", "mean correlation with KSR1 profile": -0.372}
{"Gene": "CSPG5 (chondroitin sulfate proteoglycan 5)", "mean correlation with KSR1 profile": 0.435}
{"Gene": "ZNF177 (zinc finger protein 177)", "mean correlation with KSR1 profile": 0.535}
{"Gene": "NPEPL1 (aminopeptidase like 1)", "mean correlation with KSR1 profile": 0.894}
{"Gene": "BABAM2 (BRISC and BRCA1 A complex member 2)", "mean correlation with KSR1 profile": 0.402}
{"Gene": "WNK1 (WNK lysine deficient protein kinase 1)", "mean correlation with KSR1 profile": 0.268}
{"Gene": "C11orf24 (chromosome 11 open reading frame 24)", "mean correlation with KSR1 profile": -0.718}
{"Gene": "ZFP2 (ZFP2 zinc finger protein)", "mean correlation with KSR1 profile": -0.387}
{"Gene": "SYN3 (synapsin III)", "mean correlation with KSR1 profile": 0.385}
{"Gene": "GUCY1A2 (guanylate cyclase 1 soluble subunit alpha 2)", "mean correlation with KSR1 profile": -0.584}
{"Gene": "NACA4P (NACA family member 4, pseudogene)", "mean correlation with KSR1 profile": 0.93}
{"Gene": "MAB21L1 (mab-21 like 1)", "mean correlation with KSR1 profile": -0.401}
{"Gene": "SLC35D4", "mean correlation with KSR1 profile": -0.0763}
{"Gene": "TMEM163 (transmembrane protein 163)", "mean correlation with KSR1 profile": 0.473}
{"Gene": "MYO1C (myosin IC)", "mean correlation with KSR1 profile": 0.2}
{"Gene": "FZD8 (frizzled class receptor 8)", "mean correlation with KSR1 profile": 0.471}
{"Gene": "TRIO (trio Rho guanine nucleotide exchange factor)", "mean correlation with KSR1 profile": 0.64}

3 entries from above, sorted by “mean correlation with KSR1 profile”, low to high.
{"Gene": "WNK1 (WNK lysine deficient protein kinase 1)", "mean correlation with KSR1 profile": 0.268}
{"Gene": "BABAM2 (BRISC and BRCA1 A complex member 2)", "mean correlation with KSR1 profile": 0.402}
{"Gene": "NPEPL1 (aminopeptidase like 1)", "mean correlation with KSR1 profile": 0.894}

Continued:
{"Gene": "ARSG (arylsulfatase G)", "mean correlation with KSR1 profile": 0.312}
{"Gene": "ZNF80 (zinc finger protein 80)", "mean correlation with KSR1 profile": -0.197}
{"Gene": "CLUHP3 (CLUH pseudogene 3)", "mean correlation with KSR1 profile": 0.468}
{"Gene": "TMEM216 (transmembrane protein 216)", "mean correlation with KSR1 profile": -0.191}
{"Gene": "LOXL1 (lysyl oxidase like 1)", "mean correlation with KSR1 profile": 0.256}
{"Gene": "NCDN (neurochondrin)", "mean correlation with KSR1 profile": -0.222}
{"Gene": "RPS6 (ribosomal protein S6)", "mean correlation with KSR1 profile": 0.425}
{"Gene": "HIBADH (3-hydroxyisobutyrate dehydrogenase)", "mean correlation with KSR1 profile": -0.085}
{"Gene": "ZSCAN9 (zinc finger and SCAN domain containing 9)", "mean correlation with KSR1 profile": -0.254}
{"Gene": "ANXA11 (annexin A11)", "mean correlation with KSR1 profile": 0.464}
{"Gene": "DIMT1 (DIM1 rRNA methyltransferase and ribosome maturation factor)", "mean correlation with KSR1 profile": 0.372}
{"Gene": "SNX3 (sorting nexin 3)", "mean correlation with KSR1 profile": 0.246}
